Assay results reported in patent US7538193B2, “NO-modified hemoglobins and uses therefor” (Duke University, priority 1995, dated 2009).

Assay: Endogenous SNO-Hb and Hb(FeII)NO in rat blood by photolysis-chemiluminescence
Assay type: in vivo
Conditions: for Hb(FeII)NO (nm) / SNO-Hb: endogenous level
From the text: A highly sensitive photolysis-chemiluminescence methodology was employed, which had been used for measuring RSNOs (S-nitrosothiols) in biological systems (Gaston, B., et al., Proc. Natl. Acad. Sci. USA 90:10957-10961 (1993); Stamler, J. S., et al., Proc. Natl. Acad. Sci USA 89:7674-7677 (1992)). The method involves photolytic liberation of NO from the thiol, which is then detected in a chemiluminesence spectrometer by reaction with ozone. The same principle of operation can be used to cleave (and measure) NO from nitrosyl-metal compounds (Antonini, E. and Brunori, M. In Hemoglobin and Myoglobin in Their Reactions with Ligands, American Elsevier Publishing Co., Inc., New York, pp. 29-31 (1971)). With adjustment of flow rates in the photolysis cell, complete photolysis of the NO ligand of Hb(FeII)NO is achieved. […] UV/VIS spectroscopy confirmed that NO remained attached to heme in the presence of excess HgCl^2.
Blood was obtained from the left ventricle (arterial) and jugular vein (venous) of anesthetized Sprague-Dawley rats. […] Red blood cells were isolated by centrifugation at 800 g, washed three times in phosphate buffered saline at 4° C., lysed by the addition of 4-fold excess volume of deionized water containing 0.5 mM EDTA, and desalted rapidly across G-25 columns according to the method of Penefsky at 4° C. In 24 rats, Hb samples were divided in two aliquots which were then treated or not treated with 10-fold excess HgCl2 over protein concentration as measured by the method of Bradford. Determinations of SNO-Hb and Hb(FeII)NO were made by photolysis-chemiluminescence. In 12 additional rats, further verification of the presence of SNO-Hb was made by assaying for nitrite after HgCl2 treatment. Specifically, samples (with and without HgCl2) were separated across Amicon-3 (Centricon filters, m.w. cut off 3,000) at 4° C. for 1 h, and the low molecular weight fractions collected in airtight syringes containing 1 μM glutathione in 0.5 N HCl. Under these conditions, any nitrite present was converted to S-nitrosoglutathione, which was then measured by photolysis-chemiluminescence (detection limit ˜1 nM). SNO-Hb was present in all arterial samples, and levels determined by this method (286±33 nM) were virtually identical to and not statistically different from those shown in Table 2. In venous blood, SNO-Hb was undetectable (0.00±25 nM); levels were not statistically different from those given above.
A highly sensitive photolysis-chemiluminescence methodology was employed. A somewhat similar assay has been used for measuring RSNOs (S-nitrosothiols) in biological systems (Gaston, B., et al., Proc. Natl. Acad. Sci. USA 90:10957-10961 (1993); Stamler, J. S., et al., Proc. Natl. Acad. Sci. USA 89:7675-7677 (1992)). The method involves photolytic liberation of NO from the thiol, which is then detected in a chemiluminesence spectrometer by reaction with ozone. The same principle of operation can be used to cleave (and measure) NO from nitrosyl-metal compounds (Antonini, E. and Brunori, M. In Hemoglobin and Myoglobin in Their Reactions with Ligands, American Elsevier Publishing Co., Inc., New York, pp. 29-31 (1971)). With adjustment of flow rates in the photolysis cell, complete photolysis of the NO ligand of Hb(FeII)NO could be achieved. […] UV/VIS spectroscopy confirmed that NO remained attached to heme in the presence of excess HgCl2.

Substance	Hb(FeII)NO (nm) (arterial blood)	Hb(FeII)NO (nm) (venous blood)	SNO-Hb level by nitrite assay after HgCl2 treatment (arterial samples, 12 additional rats)	SNO-Hb (arterial blood)	SNO-Hb (venous blood)
Hb(FeII)NO: hemoglobin with NO bound to the Fe of the heme	536 ± 99 nm	894 ± 126 nm	–	–	–
SNO-Hb: S-nitrosohemoglobin, hemoglobin S-nitrosylated at thiol groups (cysβ93)	–	–	286 ± 33 nM	311 ± 55 nM	32 ± 14 nM
